Results are given in words; binding and its absence hold for the method and conditions named. In cells and extracts the contact can be indirect. Some binding calls cover weakened binding; strength is not graded here. One block for each binder: values may come before it.
Experiments:
[1] = biological target: T1, RMI1 protein (human (endogenous in K-562 and LAMA-84)) (UniProt Q9H9A7); test: co-IP
T1 sequence: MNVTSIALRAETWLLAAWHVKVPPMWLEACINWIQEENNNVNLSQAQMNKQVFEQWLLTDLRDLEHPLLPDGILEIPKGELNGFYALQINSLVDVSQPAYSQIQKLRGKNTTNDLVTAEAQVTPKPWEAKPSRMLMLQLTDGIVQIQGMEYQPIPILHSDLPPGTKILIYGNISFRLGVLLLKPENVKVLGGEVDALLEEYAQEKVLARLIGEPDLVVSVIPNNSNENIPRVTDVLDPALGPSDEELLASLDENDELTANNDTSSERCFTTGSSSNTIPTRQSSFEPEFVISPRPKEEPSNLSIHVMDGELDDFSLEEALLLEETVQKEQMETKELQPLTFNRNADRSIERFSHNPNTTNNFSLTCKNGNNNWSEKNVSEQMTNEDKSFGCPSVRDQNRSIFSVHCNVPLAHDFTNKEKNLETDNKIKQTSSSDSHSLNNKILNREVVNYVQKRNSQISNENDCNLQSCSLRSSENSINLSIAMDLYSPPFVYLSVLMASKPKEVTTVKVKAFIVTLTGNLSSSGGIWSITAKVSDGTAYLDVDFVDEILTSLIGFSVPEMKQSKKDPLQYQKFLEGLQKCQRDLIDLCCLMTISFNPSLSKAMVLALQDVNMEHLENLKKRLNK

[2] = biological target: T2, TOP3A protein (human (endogenous in K-562 and LAMA-84)) (UniProt Q13472); test: co-IP
T2 sequence: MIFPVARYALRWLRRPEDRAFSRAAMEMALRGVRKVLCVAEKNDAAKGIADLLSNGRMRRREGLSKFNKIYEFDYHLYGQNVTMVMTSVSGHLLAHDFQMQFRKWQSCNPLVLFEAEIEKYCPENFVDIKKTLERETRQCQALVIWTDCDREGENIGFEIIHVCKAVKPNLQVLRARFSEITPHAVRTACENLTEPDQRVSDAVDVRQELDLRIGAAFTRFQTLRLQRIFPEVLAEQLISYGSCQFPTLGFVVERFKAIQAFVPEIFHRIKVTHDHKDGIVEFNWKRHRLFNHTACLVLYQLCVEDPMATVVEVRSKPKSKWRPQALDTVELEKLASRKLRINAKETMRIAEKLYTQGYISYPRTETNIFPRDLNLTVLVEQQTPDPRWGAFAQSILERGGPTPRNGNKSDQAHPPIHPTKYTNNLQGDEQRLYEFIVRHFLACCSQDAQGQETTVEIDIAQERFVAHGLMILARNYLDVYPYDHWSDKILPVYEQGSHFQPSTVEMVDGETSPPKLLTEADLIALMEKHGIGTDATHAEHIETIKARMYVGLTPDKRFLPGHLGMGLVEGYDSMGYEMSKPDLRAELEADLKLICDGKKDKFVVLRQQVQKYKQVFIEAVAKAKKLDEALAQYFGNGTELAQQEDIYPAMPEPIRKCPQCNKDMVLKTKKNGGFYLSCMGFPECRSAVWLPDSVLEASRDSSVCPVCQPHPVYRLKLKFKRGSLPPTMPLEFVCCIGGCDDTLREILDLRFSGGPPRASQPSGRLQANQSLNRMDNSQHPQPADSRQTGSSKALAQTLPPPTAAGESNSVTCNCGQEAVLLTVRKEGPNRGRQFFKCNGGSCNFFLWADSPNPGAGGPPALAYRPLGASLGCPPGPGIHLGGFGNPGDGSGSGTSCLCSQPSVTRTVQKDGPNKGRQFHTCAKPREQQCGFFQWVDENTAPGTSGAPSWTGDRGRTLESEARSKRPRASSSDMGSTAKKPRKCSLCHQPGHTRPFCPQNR

binding [1]: binds
B1: TOP3A protein (enzyme, UniProt Q13472 1-1001)
chain: T2 sequence

binding [2]: binds
B2: RMI1 protein (protein, UniProt Q9H9A7 1-625)
chain: T1 sequence

From article doi:10.1101/2024.06.27.601046
